Results published in PubChem BioAssay AID1794845 (National Center for Advancing Translational Sciences (NCATS), 2023).
Screen size: about 6,900 compounds; fewer than 10 were called active. Calls follow the shape of the dose curve; as a rule, active = well fitted curve in the direction sought with a large enough effect; inconclusive = small, poorly fitted or top-dose-only effect, or another doubt; inactive = no such curve, though single readings can be large or run the other way. Some of the results follow.

Protein sequences, listed by entry. Tags and fused reporters are not part of them. Lines headed by an entry give the natural chain unless they say otherwise; changes in a name come on top.
UniProt C7C422: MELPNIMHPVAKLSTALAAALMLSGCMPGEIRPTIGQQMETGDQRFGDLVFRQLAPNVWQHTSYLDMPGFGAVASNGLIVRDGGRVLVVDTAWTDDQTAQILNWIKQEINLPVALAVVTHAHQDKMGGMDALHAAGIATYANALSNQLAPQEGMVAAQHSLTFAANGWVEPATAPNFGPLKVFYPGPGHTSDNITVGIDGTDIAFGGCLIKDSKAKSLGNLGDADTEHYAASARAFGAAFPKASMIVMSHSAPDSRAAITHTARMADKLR

target: Metallo-beta-lactamase type 2 (Klebsiella pneumoniae) (UniProt C7C422); assay: qHTS to identify inhibitors of the New Delhi Metallo-beta-lactamase (NDM): primary screen against the NCATS Gemini Collection; settings: NDM-1 enzyme, meropenem hydrolysis, absorbance 300 nm; at 38.4 µM (top of the series) unless noted; also: % of control where 0% means no effect
Summary of the method: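 Meropenem hydrolysis (50 uM final) by 2 nM NDM-1 read as 300 nm absorbance after 30 min, following >30 min compound–enzyme preincubation in HEPES pH 7.0 with 1 uM ZnSO4 and 0.01% Tween20.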

SMILES	activity % (negative = inhibition)
O=C(C1CCCCC1)N1C[C@@H]2C[C@H](C1)c1c(-c3cncnc3)ccc(=O)n1C2	inactive: 3.13% [at 57.5 µM]
COCc1cn(C[C@H]2C[C@@H]3CCN2C[C@@H]3C(=O)NCc2ccco2)nn1	inactive: 0.982% [at 57.5 µM]
O=C1NCCCCCCN[C@H]2CCC[C@@H]12	inactive: -9.92%
CC(=O)c1ccc(NC(=O)OC[C@H]2C[C@@H]3CCN2C[C@@H]3c2cc(-c3cccs3)nn2C)cc1	inactive: 1.88%
C#C[C@H]1CN2CC[C@H]1C[C@@H]2CNS(=O)(=O)c1cccs1	inactive: 0.508% [at 57.5 µM]
Cc1ccc([C@H]2C[C@@H](O)[C@@H](O)[C@@H]2NCC(C)C)cc1	inactive: 11.3% [at 77.1 µM]
CC(C)NC(=O)NC[C@H]1C[C@@H]2CCN1C[C@@H]2CN1CCC(Cc2ccccc2)CC1	inactive: 0.575% [at 57.5 µM]
C#C[C@H]1CN2CC[C@H]1C[C@@H]2CNC(=O)COCC(=O)O	inactive: -1.02% [at 77.1 µM]
O=c1c(-c2cccc(C(F)(F)F)c2)ccc2n1C[C@H]1C[C@@H]2CN(S(=O)(=O)c2cccs2)C1	inactive: 3.39%
Cn1nc(-c2cccs2)cc1[C@H]1CN2CC[C@H]1C[C@@H]2CNC(=O)Nc1ccccc1	inactive: 2.08% [at 57.5 µM]
O=C(c1ccncc1)N1C2CCC1CN(Cc1cccnc1)C2	inactive: 27.3%
Cn1nc(C2CCCNC2)n(C2CCCC2)c1=O (stereo not drawn)	inactive: 2.04%
O=C(O)C1=NOC2CN(Cc3cncs3)CC12 (stereo not drawn)	inactive: 10.9% [at 57.5 µM]
COc1ccc(-c2cc3c(cn2)CN(C)CCN3)cn1	inactive: 26.9% [at 77.1 µM]
O[C@@H]1CNC2Cc3c([nH]c4ccccc34)C1C2 (stereo partly drawn)	inactive: -11.6%
Cn1cnc(S(=O)(=O)N2[C@H]3CC[C@@H]2c2cnc(-c4ccccc4)nc2C3)c1	inactive: 6.7%
CCC1(N2CCN(C(=O)COc3ccc(Cl)cc3C)CC2)CCN(C(=O)NC)C1 (stereo not drawn)	inactive: -1.67%
CN1CCC(NCC2(CO)C[C@@H](O)[C@@H](O)C2)CC1 (stereo partly drawn)	inactive: -4.08% [at 57.5 µM]
Cc1noc(-c2ccc(N3CC4CC(C3)c3cccc(=O)n3C4)nc2)n1 (stereo not drawn)	inactive: 18.7%

SMILES	activity % (negative = inhibition)
Cn1nc(-c2cccs2)cc1[C@H]1CN2CC[C@H]1C[C@@H]2CNS(C)(=O)=O	inactive: 6.98% [at 57.5 µM]
CN(C)CC(=O)Nc1ccc2n(c1=O)C[C@H]1C[C@@H]2CN(C(=O)c2cccnc2)C1	inactive: 20.6% [at 57.5 µM]
CS(=O)(=O)N1C[C@H]2CCN(Cc3ccncc3F)C[C@H]21	inactive: -1.76%
N#CC1(c2ccccc2)CCN(C(=O)c2cn(-c3ccccc3)nn2)CC1	inactive: 5.87%
CNCc1cn(C[C@H]2CC3CCN2C[C@@H]3C(=O)Nc2ccccc2)nn1 (stereo partly drawn)	inactive: 0.624% [at 57.5 µM]
CCCc1nc(C)cc(N2CCC3(CC2)CNC(C(=O)O)C3)n1 (stereo not drawn)	inactive: 24.9%
O=C(Cc1ccc(Cl)cc1)N1CCN(C2CCN(Cc3ccccn3)C2=O)CC1 (stereo not drawn)	inactive: 0.0207%
c1cncc(C2=NOC3(CCN(C4COC4)CC3)C2)c1	inactive: -0.206% [at 57.5 µM]
Cc1nc(-c2cccs2)cc([C@H]2CN3CC[C@H]2C[C@@H]3COC(=O)Nc2ccc(C(C)C)cc2)n1	inactive: 4.42%
COCCN1C(=O)CS(=O)(=O)C12CCNCC2	inactive: 7.59%
Cc1cc(CN2CCC23Cc2ccccc2NC3=O)no1 (stereo not drawn)	inactive: 2.62% [at 57.5 µM]
NC(=O)CN1C(=O)CO[C@H]2CN(Cc3ccccn3)C[C@H]21	inactive: 3% [at 77.1 µM]
CCC1(N2CCN(C(=O)Cc3c[nH]c4ccccc34)CC2)CCN(S(C)(=O)=O)C1 (stereo not drawn)	inactive: 2.15%
C=C[C@H]1CN2CC[C@H]1C[C@@H]2CNC(=O)N1CCOCC1	inactive: 9.21% [at 77.1 µM]
O=c1ccc(-c2ccccc2F)c2n1C[C@H]1C[C@@H]2CN(Cc2ccc(CO)o2)C1	inactive: 5.85% [at 57.5 µM]
COCCO[C@H]1COCCN(C2CCOCC2)C1	inactive: 7.41% [at 77.1 µM]
COc1ccc(-c2ccc3n(c2=O)C[C@H]2C[C@@H]3CN(S(C)(=O)=O)C2)cc1	inactive: 14.3% [at 57.5 µM]
Cc1cc(CN2CCC3(C2)C(=O)N(C)c2ccccc23)no1 (stereo not drawn)	inactive: 0.144% [at 57.5 µM]
N#Cc1cccc(-c2ccc3n(c2=O)C[C@H]2C[C@@H]3CN(C(=O)c3ccc(F)cc3)C2)c1	inactive: 22.3% [at 57.5 µM]

2 entries picked at random from those above:
SMILES	activity % (negative = inhibition)
CS(=O)(=O)N1C[C@H]2CCN(Cc3ccncc3F)C[C@H]21	inactive: -1.76%
N#Cc1cccc(-c2ccc3n(c2=O)C[C@H]2C[C@@H]3CN(C(=O)c3ccc(F)cc3)C2)c1	inactive: 22.3% [at 57.5 µM]
